These are yes or no findings as the source states them, for the method shown. In cells and extracts the contact can be indirect. A yes stands for co-enrichment or nearness to the bait. Other partners may have been found. Tags and fused reporters may be left off the sequences shown.

Sequences of proteins named here, by UniProt entry; tags and fusion partners are left off.
UniProt P06748: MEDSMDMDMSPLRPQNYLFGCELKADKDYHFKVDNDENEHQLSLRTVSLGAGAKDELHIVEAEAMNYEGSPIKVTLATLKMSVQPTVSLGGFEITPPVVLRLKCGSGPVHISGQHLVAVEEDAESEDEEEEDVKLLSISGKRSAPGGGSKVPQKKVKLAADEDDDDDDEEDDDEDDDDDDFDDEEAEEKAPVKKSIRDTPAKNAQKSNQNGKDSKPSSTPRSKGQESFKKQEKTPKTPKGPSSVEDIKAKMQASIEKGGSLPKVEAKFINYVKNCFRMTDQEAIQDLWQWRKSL

The assay addresses T1, EGFP-tagged Plk2 kinase-inactive mutant (Plk2 KD, N210A) (UniProt Q9NYY3).
T1 sequence: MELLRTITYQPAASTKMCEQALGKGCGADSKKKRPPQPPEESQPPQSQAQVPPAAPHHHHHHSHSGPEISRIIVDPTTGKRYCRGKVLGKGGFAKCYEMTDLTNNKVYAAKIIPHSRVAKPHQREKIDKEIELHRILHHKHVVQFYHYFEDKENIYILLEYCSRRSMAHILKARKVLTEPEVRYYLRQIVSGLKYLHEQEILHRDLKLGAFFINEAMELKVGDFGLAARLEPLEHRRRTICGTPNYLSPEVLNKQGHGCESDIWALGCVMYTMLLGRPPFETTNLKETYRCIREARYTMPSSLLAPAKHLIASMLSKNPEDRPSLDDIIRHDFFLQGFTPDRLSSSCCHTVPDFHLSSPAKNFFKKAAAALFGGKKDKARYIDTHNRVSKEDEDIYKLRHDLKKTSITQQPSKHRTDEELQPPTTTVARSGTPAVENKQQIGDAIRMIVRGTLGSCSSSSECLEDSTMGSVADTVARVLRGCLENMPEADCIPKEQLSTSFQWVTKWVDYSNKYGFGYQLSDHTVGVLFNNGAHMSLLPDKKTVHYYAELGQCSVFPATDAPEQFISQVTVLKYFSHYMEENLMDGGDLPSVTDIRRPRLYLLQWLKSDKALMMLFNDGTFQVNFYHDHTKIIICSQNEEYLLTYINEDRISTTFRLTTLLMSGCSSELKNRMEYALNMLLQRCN
The assay can be described thus: affinity purification with mass spectrometry; EGFP-Plk2 KD or EGFP alone overexpressed in HeLa cells, immunoprecipitated with anti-GFP antibodies; SDS-PAGE, silver staining, bands cut out and analysed by nanoHPLC ESI QTOF MS.

As for “NPM/B23 (Nucleophosmin), endogenous in HeLa cells (from UniProt P06748 1-294)”, the binding entry is recorded as “binds”.

Source of the values: publication PMC2844433, “Polo-Like Kinase 2-Dependent Phosphorylation of NPM/B23 on Serine 4 Triggers Centriole Duplication” (PLoS ONE, 2010).
